One may read the AC50 as the concentration at which the activity in the assay is half-maximal. Higher therefore signals weaker potency.

Consider 60 molecules from PubChem BioAssay AID2685 (National Center for Advancing Translational Sciences (NCATS), 2010).

The assay in a line: qHTS Assay for Lipid Storage Modulators in Drosophila S3 Cells.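 For cell number change: cells counted by Cell Tracker Red CMTPX staining in the red channel.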 To be noted: BODIPY lipid droplet fluorescence, 18-24 h; for cell number change: measured here: cell count max response, cells fed with added oleic acid. Summed up: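 Drosophila S3 cells loaded with oleic acid (400 uM, as added) and compounds at several concentrations; lipid droplets imaged by 488-nm laser-scanning cytometry, 500–530 nm intensity and object ratio to cell channel. Percent activity normalized to 20 uM Triacsin C.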

Setting [1] is: measured here: cell number channel AC50, cells fed with added oleic acid.
The mark [2] stands for this setting: measured here: lipid fluorescence (Fed channel) AC50, cells fed with added oleic acid.

The other results are listed elsewhere or left out. The main result of the screen is listed elsewhere. These columns were measured beside it and carry no call. Most of these compounds were active or inconclusive in the main read-out, so they are no random draw. The note in brackets gives the kind of curve behind each potency; many fits are weak.

Regarding `CCc1ccccc1NC(=O)C1CCCN(c2ncccn2)C1` (centres undefined), the cell number change amounted to 16.7%.
Consider `CCN(CC)S(=O)(=O)c1cccc(NC(=O)CNc2cccc(S(=O)(=O)N3CCOCC3)c2)c1`, for which the cell number change is -61.5%. Besides, under setting [1], the AC50 was 2.06 µM [falling, full curve]. Also, under setting [2], the AC50 is 3.26 µM [falling, partial curve].
In the case of `O=C(Nc1ccc(F)cc1)c1ccc2c(=O)n(CC3CCCO3)c(=S)[nH]c2c1` (centres undefined), the cell number change was found to be 66.7%. The AC50 under setting [1] is 29.1 µM [rising, single point]. In addition, the AC50 under setting [2] is 4.61 µM [falling, single point].
Turning to `COc1cc(S(=O)(=O)Nc2cccc3cn[nH]c23)c(OC)cc1Cl`, the cell number change was -3.24%. For the same molecule, under setting [2], the AC50 is 29.1 µM [falling, single point].
As to `Cc1cccc(C(=O)Nc2ccc(S(=O)(=O)Nc3nc(C)cc(C)n3)cc2)c1`, the cell number change was determined as 10.6%. Further, the AC50 under setting [2] is 1.64 µM [rising, partial curve].
Consider `C=CCNc1nc(Nc2ccc(OC)cc2)nc(OCC)n1`, for which the cell number change was 33.2%. The AC50 under setting [1] is 2.59 µM [rising, full curve, poor fit]. The AC50 under setting [2] was 2.91 µM [rising, partial curve].
Consider `CC(=O)c1ccc(S(=O)(=O)NC2CC(=O)N(c3ccc(C)c(C)c3)C2)cc1` (centres undefined), for which the cell number change worked out at 52.3%. The AC50 under setting [1] was 13 µM [rising, partial curve, poor fit].
Turning to `COC(=O)c1cc(S(=O)(=O)N2CCCCC2)ccc1N1CCOCC1`, the AC50 under setting [1] was 6.51 µM [falling, single point].
As for `Cc1nn(C)c(C(=O)NNC(=S)Nc2ccc(F)cc2)c1[N+](=O)[O-]`, the cell number change turned out to be 22.7%. Besides, the AC50 under setting [2] is 18.4 µM [falling, single point].
For the molecule `O=C(CSc1nnc(NC(=O)c2ccccc2)s1)NCc1ccco1`, the cell number change turned out to be 16.1%. Besides, the AC50 under setting [2] is 6.51 µM [rising, single point].
Turning to `CCOC(=O)C1=C(COC(=O)COc2ccccc2C(C)C)NC(=O)NC1C` (centres undefined), the cell number change was -10.4%.
In the case of `CCCCCC(O)(c1ccc(OCC)cc1)C(CN1CCOCC1)c1ccccc1` (centres undefined), the cell number change was found to be 39%. In addition, the AC50 under setting [1] is 3.26 µM [rising, full curve]. Moreover, the AC50 under setting [2] was 6.51 µM [rising, partial curve].
In the case of `Cn1nnc(NC(=O)c2cccs2)n1`, the cell number change is -12.6%. For the same molecule, the AC50 under setting [1] was 7.31 µM [falling, single point].
Consider `CN(CC#CC1(O)c2ccccc2-c2ccccc21)Cc1ccccc1`, for which the cell number change stood at 7.33%. Moreover, under setting [1], the AC50 was 1.3 µM [falling, full curve, poor fit]. The AC50 under setting [2] is 0.82 µM [falling, single point].
For the molecule `COc1cc2c(cc1OC)C(C)N(C(=O)c1ccc(C)o1)CC2` (centres undefined), the cell number change amounted to 60.3%. In addition, under setting [1], the AC50 is 14.6 µM [rising, single point].
For `CC(C)CC(=O)N1CCN(C(=O)c2ccc(-c3ccccc3)cc2)CC1`, the cell number change is -19.3%. For the same molecule, the AC50 under setting [2] is 29.1 µM [falling, single point].
With `CC1(C)CC(NC(=O)CC(c2ccccc2)c2ccccc2)CC(C)(C)N1`, the AC50 under setting [2] is 0.58 µM [rising, single point].
In the case of `Cc1cc2cc(CCNC(=O)CCc3ccccc3)c(=O)[nH]c2cc1C`, the cell number change was found to be 18.9%.
As to `CN(C)CCCN(C(=O)c1ccc(S(=O)(=O)N2CCc3ccccc3C2)cc1)c1nc2ccc(F)cc2s1`, the cell number change is -36.6%. Moreover, the AC50 under setting [1] was 13 µM [falling, single point]. Moreover, the AC50 under setting [2] was 23.1 µM [falling, single point].
As to `CCc1ccc(NC(=O)Cn2nc(C(=O)O)c3ccccc3c2=O)cc1`, the cell number change amounted to 3.81%.
As for `Cc1cnc(NC(=O)COc2ccccc2)s1`, the cell number change is -19.8%. Also, under setting [2], the AC50 is 1.46 µM [rising, partial curve, poor fit].
Turning to `COc1ncnc2c1cnn2-c1ccccc1`, the cell number change is -21%. Under setting [1], the AC50 is 0.13 µM [falling, full curve, poor fit]. Also, the AC50 under setting [2] was 29.1 µM [falling, single point].
In the case of `O=C(NCc1ccccn1)c1cccc(S(=O)(=O)N2CCCCC2)c1`, the cell number change was 3.28%. Under setting [2], the AC50 is 18.4 µM [rising, single point].
Turning to `CCOc1ccc(/C=N/NC(=O)CSc2ccccn2)cc1O`, the cell number change turned out to be 23.4%. Also, the AC50 under setting [2] was 1.03 µM [rising, partial curve].
Consider `N#Cc1cc2c(nc1SCC(=O)Nc1nccs1)CCCCC2`, for which the AC50 by setting is: under setting [1], 0.651 µM [rising, full curve]; under setting [2], 0.517 µM [rising, full curve].
With `CC1CCC/C(=N\NC(=S)NCc2ccccc2)C1` (centres undefined), the cell number change amounted to 29.5%.
Take `C/C(=N\NC(=O)CCC(=O)Nc1ccc(C)c(C)c1)c1cccs1`: the cell number change was -0.446%. Also, under setting [1], the AC50 was 0.103 µM [falling, full curve, poor fit].
On to `C/C(=N\N=C(N)N)c1ccc(Cl)cc1Cl`, for which the AC50 under setting [1] is 0.291 µM [falling, partial curve].
For `CC(C)C(C)(C#N)NC(=O)CSc1ncnc2sc(-c3ccccc3)cc12` (centres undefined), the cell number change was -13.5%. Moreover, under setting [2], the AC50 is 0.82 µM [rising, single point].
Take `CC1CCCC(C)N1CCCNC(=O)Cn1ncc2c([nH]c3ccccc32)c1=O` (centres undefined): the cell number change was 20%.
As to `O=C(C1CCN(S(=O)(=O)c2cccc3nsnc23)CC1)N1CCCCC1`, the cell number change was -9.43%. Further, the AC50 under setting [2] was 6.51 µM [falling, single point].
On to `CCCCn1c(CCC(=O)O)nc2cc(S(=O)(=O)N(CC)CC)ccc21`, for which the cell number change was 15.1%. Also, the AC50 under setting [2] is 29.1 µM [falling, single point].
`COc1ccc(C(=O)OC(C)CN2CCN(C)CC2)cc1OC` (centres undefined): the cell number change is -1.94%. Further, under setting [2], the AC50 is 6.51 µM [rising, single point].
Consider `C(=N\Nc1nncn1/N=C/c1ccco1)/c1ccco1`, for which the cell number change was determined as 35.7%. Besides, the AC50 under setting [1] was 4.11 µM [rising, full curve, poor fit]. Under setting [2], the AC50 is 23.1 µM [rising, single point].
Turning to `CCOc1ccccc1NC(=O)C(Sc1ccccc1)c1ccccc1` (centres undefined), the cell number change is -1.93%. Besides, the AC50 under setting [2] was 0.517 µM [falling, full curve].
For the molecule `COc1cccc(OC)c1C1=CC(=O)C[C@H](c2ccc3c(c2)OCO3)C1`, the AC50 under setting [1] is 1.3 µM [falling, partial curve] and the AC50 under setting [2] was 0.164 µM [falling, full curve, poor fit].
`CCCN(CC(=O)Nc1ccccc1C)C(=O)c1ccc(C(=O)c2ccccc2)cc1`: the cell number change came out at 55.3%. Further, under setting [1], the AC50 is 29.1 µM [rising, single point].
Take `N#Cc1c2c(c(N3CCN(c4ccccn4)CC3)n3c1nc1ccccc13)CCC2`: the cell number change worked out at 18%.
Consider `O=C(Nc1ccc(N2CCN(C(=O)c3ccccc3F)CC2)cc1)c1cncc(Br)c1`, for which the cell number change is -34.9%. Further, the AC50 under setting [1] was 16.4 µM [falling, single point].
Take `Cc1ccc(C)c(N(C(=O)c2ccco2)C(C(=O)NC2CCCC2)c2ccco2)c1` (centres undefined): the cell number change is -29.5%.
Regarding `Cc1cc(C(=O)C(C)OC(=O)c2ccc(NC(=O)CC#N)cc2)c(C)n1-c1ccccc1` (centres undefined), the concentration at half-maximal activity (AC50) under setting [1] is 3.26 µM [rising, single point] and the AC50 under setting [2] was 2.59 µM [rising, single point].
As for `Cc1cc(=O)oc2c(C)c(OC(C)C(=O)NCCCn3ccnc3)ccc12` (centres undefined), the cell number change worked out at 3.62%.
For `Cc1ccc(C(C(=O)NC2CCCC2)N(C(=O)Cc2cccs2)c2ccc(C)c(C)c2)o1` (centres undefined), the cell number change was determined as 38.6%. The AC50 under setting [1] is 29.1 µM [rising, single point]. Further, the half-maximal activity concentration (AC50) under setting [2] is 29.1 µM [rising, single point].
On to `CCOc1ccccc1NC(=O)CC1(CC(=O)N2CCOCC2)CCCC1`, for which the cell number change worked out at 2.89%. Also, the AC50 under setting [2] is 0.103 µM [falling, full curve, poor fit].
Regarding `COc1ccc(C)cc1Nc1cc(C)nc2nc(C)nn12`, the cell number change worked out at 30.4%. In addition, under setting [1], the AC50 was 29.1 µM [rising, single point].
Turning to `O=C(NCCN1C(=O)C2C3C=CC(C3)C2C1=O)Nc1ccc(Br)cc1` (centres undefined), the cell number change was 6.06%. Moreover, the AC50 under setting [2] is 29.1 µM [rising, single point].
Turning to `CCc1ccc(C(=O)N2CCN(S(=O)(=O)c3sc(C(=O)O)c(C)c3C(=O)O)CC2)cc1`, the cell number change came out at 36.9%. Moreover, the AC50 under setting [1] was 23.1 µM [rising, partial curve].
Take `COC(=O)c1ccc(CSc2nnc(-c3c[nH]c4ccccc34)n2-c2ccccc2)cc1`: the cell number change was -8.43%. Besides, the AC50 under setting [2] is 29.1 µM [falling, single point].
For `N#Cc1ccccc1NC(=O)COC(=O)CSc1nc2ccccc2o1`, the cell number change was -102%. Further, under setting [1], the AC50 was 32.6 µM [falling, single point].
`COc1ccc(-c2nc(CN3CCCCC3c3nccn3C)c(C)o2)c(C)c1C` (centres undefined): the cell number change was determined as 12%.
Regarding `CCOc1ccc2nc(N3CCCC(C(=O)N4CCN(CC)CC4)C3)sc2c1` (centres undefined), the cell number change was -56.8%. The AC50 under setting [1] is 4.11 µM [falling, single point].
For the molecule `COc1ccc(NC(=S)NCCc2ccc(F)cc2)c(OC)c1`, the cell number change was -6.79%. For the same molecule, the AC50 under setting [1] is 6.51 µM [rising, partial curve, poor fit]. Moreover, the AC50 under setting [2] is 7.31 µM [rising, partial curve, poor fit].
Regarding `COC(=O)Cc1c(C)c2ccc(O)c(CNCc3ccc(OC)c(OC)c3)c2oc1=O`, the cell number change was 21.5%.
Turning to `COC(=O)C1=C(C)N=C2SC(C#N)=C(N)N2C1c1ccc(OC)cc1` (centres undefined), under setting [2], the AC50 was 7.31 µM [falling, partial curve].
For `O=C(CSc1nnc2c(n1)[nH]c1ccccc12)Nc1nncs1`, the cell number change is -30.5%. In addition, under setting [1], the AC50 is 11.6 µM [falling, partial curve].
For the molecule `Cn1c(=O)c2sccc2n2c(CCCC(=O)NCc3cccnc3)nnc12`, the cell number change came out at 18.7%. Moreover, the concentration at half-maximal activity (AC50) under setting [2] is 0.58 µM [falling, single point].
Take `C/C(=N/NS(=O)(=O)c1ccc(C)cc1)[C@H]1C[C@@H]1c1ccccc1`: the cell number change was -20.9%. Besides, the AC50 under setting [1] was 0.366 µM [falling, full curve, poor fit].
Turning to `O=C(CSc1nccc(=O)[nH]1)Nc1ccc(N2CCOCC2)c(Cl)c1`, the cell number change is -0.952%. The AC50 under setting [2] is 29.1 µM [falling, single point].
For `O=C(NC(=S)Nc1cc(S(=O)(=O)N2CCOCC2)ccc1N1CCOCC1)c1ccco1`, the AC50 under setting [2] was 0.00461 µM [rising, full curve, poor fit].
`COc1ccc(C(C)NC(=O)c2ccncc2)cc1` (centres undefined): the cell number change stood at 21.8%. For the same molecule, the AC50 under setting [2] is 0.058 µM [falling, full curve, poor fit].
